Measured values taken from PMC8339009.
No constants are given. Whether binding was seen depends on the method and setting. In cells and extracts the contact can be indirect. Some entries that bind do so weakly or less than the wild type.

By UniProt entry, the sequences of proteins in these tests, tags left out. Where a name states a change or a piece, a line headed by the entry shows the natural chain unless it says otherwise.
UniProt P61026: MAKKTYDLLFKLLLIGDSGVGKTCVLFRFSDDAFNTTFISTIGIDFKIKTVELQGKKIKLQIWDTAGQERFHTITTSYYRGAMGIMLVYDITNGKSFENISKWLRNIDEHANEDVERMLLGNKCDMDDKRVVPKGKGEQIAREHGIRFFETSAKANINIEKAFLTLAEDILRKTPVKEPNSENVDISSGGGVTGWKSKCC

molecular target: T1, SopD-RFP (S. Typhimurium) (UniProt P40722); experiment: co-IP; HEK 293T co-transfected with SopD-RFP and GFP-Rab10 variants; lysates (50 mM Tris-HCl pH 7.4, 150 mM NaCl, 1 mM EDTA, 1% Triton X-100) incubated overnight with RFP-Trap resin; Western blot of the elutions
T1 sequence: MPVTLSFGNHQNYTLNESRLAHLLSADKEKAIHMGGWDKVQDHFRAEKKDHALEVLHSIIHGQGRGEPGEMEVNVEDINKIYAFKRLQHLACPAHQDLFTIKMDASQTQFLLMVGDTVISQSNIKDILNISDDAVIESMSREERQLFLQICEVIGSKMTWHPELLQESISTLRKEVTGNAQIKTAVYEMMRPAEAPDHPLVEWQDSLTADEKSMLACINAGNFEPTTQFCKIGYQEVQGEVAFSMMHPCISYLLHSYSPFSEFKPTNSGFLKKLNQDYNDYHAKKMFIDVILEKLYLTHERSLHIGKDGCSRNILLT

Substance | binding
GFP-Rab10 Q68L (constitutively active) (from UniProt P61026 1-200) | binds
GFP-Rab10 T23N (dominant negative) (from UniProt P61026 1-200) | binds
GFP-Rab10 wild type (from UniProt P61026 1-200) | binds
